Assay results: the supplement of paper PMC3334620
In all, about 33,000 sequences were measured (“E-score (-0.5 to 0.5)”: median about -0.015, highest 2% from about 0.3 on). Some of the results follow.

molecular target: T1, Abf1 (UniProt P14164); assay: PBM E-score (8-mer binding enrichment) (E-score (-0.5 to 0.5)); higher = stronger / more preferred TF binding; details: protein concentration: 200 nM; construct: GST-full length
T1 sequence: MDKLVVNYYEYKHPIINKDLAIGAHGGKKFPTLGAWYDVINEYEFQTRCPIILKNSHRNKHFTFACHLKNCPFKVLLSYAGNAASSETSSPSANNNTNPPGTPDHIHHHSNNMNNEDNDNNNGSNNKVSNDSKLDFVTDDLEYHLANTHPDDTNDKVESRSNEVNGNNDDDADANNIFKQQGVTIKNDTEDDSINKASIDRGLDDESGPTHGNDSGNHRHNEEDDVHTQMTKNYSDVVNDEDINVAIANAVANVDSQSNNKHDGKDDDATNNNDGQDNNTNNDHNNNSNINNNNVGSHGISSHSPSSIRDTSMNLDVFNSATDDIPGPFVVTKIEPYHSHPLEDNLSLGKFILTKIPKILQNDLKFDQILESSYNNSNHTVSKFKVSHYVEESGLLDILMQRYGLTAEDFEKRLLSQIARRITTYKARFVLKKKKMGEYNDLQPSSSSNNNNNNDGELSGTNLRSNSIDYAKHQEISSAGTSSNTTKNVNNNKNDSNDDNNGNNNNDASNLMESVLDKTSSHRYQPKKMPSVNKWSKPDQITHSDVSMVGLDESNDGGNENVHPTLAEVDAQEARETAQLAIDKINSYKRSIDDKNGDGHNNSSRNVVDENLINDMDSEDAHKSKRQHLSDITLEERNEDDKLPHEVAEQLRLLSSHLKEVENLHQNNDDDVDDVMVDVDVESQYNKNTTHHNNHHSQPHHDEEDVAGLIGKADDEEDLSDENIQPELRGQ
In short: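 Each ungapped eight-base word and its reverse complement, pooled, received an E-score from the Universal PBM Analysis Suite. Underlying scans, normalised with masliner, recorded fluorescent anti-GST bound to GST-tagged yeast transcription factors. These were applied at about 100-200 nM to universal all-10-mer Agilent arrays double-stranded by primer extension.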

| Sequence | PBM E-score |
| --- | --- |
| ACAAGACT | -0.059 |
| CCCAGGGG | -0.373 |
| AATGTTGC | 0.00562 |
| ATAGCAAT | 0.13 |
| AAGTTGCG | 0.0343 |
| CGGGGTTA | 0.136 |
| GGTTGCGA | 0.154 |
| AGATTGGC | -0.188 |
| AAGGCCGC | -0.0691 |
| CCCGCTCC | -0.298 |
| CAGGCACG | 0.149 |
| ATAGAGTG | 0.0485 |
| CTATATCA | 0.267 |
| AAATTCGG | 0.0545 |
| GGTGGACA | -0.131 |
| CTTGATTA | -0.149 |
| AGATGAAC | -0.0774 |
| ATGACCAG | 0.144 |
| AAAATGTA | 0.127 |
| ACGTTCGA | -0.00173 |
| AAGCCTCC | -0.193 |
| GTGACAAC | 0.375 |
| CTTTCATA | 0.14 |
| CAGGATAC | 0.0654 |
| CTGTGTAA | 0.0527 |

| Sequence | PBM E-score |
| --- | --- |
| TAGGGAAA | 0.096 |
| AATCATAT | 0.191 |
| ACGGTTCG | 0.192 |
| GAAAGACC | -0.183 |
| CGACTCTC | -0.0891 |
| CCGGCGCC | 0.0169 |
| AAAATAGG | 0.0199 |
| GAGATGAA | -0.253 |
| GCTAGAGA | 0.0223 |
| CCCCTTCC | -0.152 |
| ACTAAAGG | -0.0713 |
| ATTCACAA | 0.121 |
| GAATGGGC | -0.165 |
| CGCACGCG | -0.146 |
| GATCTGGC | 0.0128 |
| GGGGGCAC | -0.276 |
| CAGAGCAC | -0.137 |
| ATCCGATG | 0.0878 |
| ATCGGTGG | -0.12 |
| AACTGGCT | -0.0911 |
| AGGGCCCA | -0.324 |
| ACCCATCA | -0.117 |
| AGAGCGGG | -0.303 |
| CGAAGGCC | -0.0665 |
| GAGTTGAA | 0.0196 |

Individual results from the results shown:
In PBM E-score, CAGGCACG shows 0.149
In PBM E-score, AGATGAAC shows -0.0774

Not a retest: an excerpt of the list.

| Sequence | PBM E-score |
| --- | --- |
| CGCACGCG | -0.146 |
| GATCTGGC | 0.0128 |
| GGGGGCAC | -0.276 |
| CAGAGCAC | -0.137 |
| ATCCGATG | 0.0878 |
| ATCGGTGG | -0.12 |

The list continues.

| Sequence | PBM E-score |
| --- | --- |
| AAAAGGCG | 0.101 |
| GATAAGGC | 0.102 |
| AATAAATC | 0.0801 |
| CCTAATCC | -0.151 |
| AGTGAACT | -0.111 |
| CTTCCCGC | -0.185 |
| CATACGAA | 0.267 |
| GTCCCCTA | -0.0753 |
| TAAATCCA | 0.0899 |
| ATACGTGG | 0.155 |
| CGTAGAAG | 0.222 |
| GGTTTGAC | 0.0419 |
| CTCCGCAG | -0.188 |
| ACTACGAC | 0.117 |
| ATATCTGG | -0.0601 |
| CTTCATTC | -0.00981 |
| CACATTGC | 0.114 |
| CTGCCTTA | -0.0396 |
| ATCGGATA | 0.00543 |
| GCATATAA | 0.149 |
| CTCGCTCA | 0.00676 |
| CGGGGAGA | -0.168 |
| CCCTAAAG | -0.129 |
| CTGAGCTC | -0.232 |
| CGTGATCC | -0.0112 |

| Sequence | PBM E-score |
| --- | --- |
| CACCCTAC | 0.0301 |
| CTGGCGCC | -0.174 |
| TAAAGTCA | 0.156 |
| ATGTAGCA | 0.236 |
| AAGCAAGG | -0.0713 |
| TACCAGGA | 0.0687 |
| AACCTCAG | 0.0107 |
| GATGCCCA | -0.0338 |
| GAGGATGC | -0.0459 |
| TTAGTGAA | 0.145 |
| ACTATATG | 0.216 |
| AGAATCGG | 0.00628 |
| CAAGGCCC | -0.381 |
| CAAAAGAC | -0.115 |
| CGTACCTA | 0.142 |
| TATTGCAA | -0.0157 |
| CGCAAAAG | -0.0748 |
| CTAGAGAA | -0.0539 |
| CTTAGAGA | 0.0261 |
| CGACTCAC | -0.034 |
| CATATCCC | 0.133 |
| GGAAGCAC | -0.0279 |
| AGGGGAAT | 0.0263 |
| ACGGCCGC | 0.164 |
| GGAAGGGA | -0.285 |

| Sequence | PBM E-score |
| --- | --- |
| AGAAGGGA | -0.335 |
| GGAGGTTA | -0.133 |
| GCCGAGCA | -0.195 |
| GTATATCA | 0.386 |
| AAAGAGGA | -0.237 |
| CGGTCAGC | -0.137 |
| AAATTAGC | 0.0388 |
| CACCTCCC | -0.167 |
| AAACAACT | 0.0342 |
| TTCTGAAA | 0.00775 |
| ATACTGTA | 0.0204 |
| CATTTGCC | -0.165 |
| GACGTCTA | 0.0745 |
| ACAACCGG | 0.0327 |
| AATGATAC | 0.288 |
| CACTTCAA | 0.0436 |
| CGAGTACC | 0.0195 |
| AGGCGCAC | -0.00058 |
| CCTGAAAC | -0.0278 |
| CACTGATC | -0.0563 |
| CGCCCTTA | -0.061 |
| CTTTACCC | -0.141 |
| CGGCATGA | 0.268 |
| AGGGTGAA | -0.209 |
| CATATTCA | 0.0439 |

| Sequence | PBM E-score |
| --- | --- |
| CTGCGTGC | -0.0328 |
| CCCTGCTC | -0.181 |
| GGAGACCA | -0.147 |
| CCGGACGG | -0.145 |
| CTCTAGGC | 0.0155 |
| GCCAGTTA | 0.0901 |
| GGCGGACA | -0.302 |
| ACTCCCCG | -0.145 |
| AATTGCCG | -0.0915 |
| GGTGACCA | 0.0526 |
| CGACCCTA | -0.0254 |
| CTTAAATA | 0.0857 |
| AGTCGTAT | 0.23 |
| CGGTACGA | 0.291 |
| GGCTTGGA | -0.318 |
| CCGATGCG | -0.146 |
| CAAGTGTG | 0.0542 |
| AAGGGGCT | -0.133 |
| CCCACGCG | -0.278 |
| CGAACACG | 0.188 |
| GTGCTTGA | 0.0441 |
| GCGTATCC | -0.142 |
| ACCCATTA | -0.0415 |
| AATAAAAA | 0.168 |
| GAGTTAGA | -0.13 |

| Sequence | PBM E-score |
| --- | --- |
| ACCATAGG | -0.214 |
| CGAAGTCG | 0.12 |
| GATTATCA | 0.302 |
| AGTTGGCG | 0.0496 |
| CGACGTCG | 0.0452 |
| GACAGAGA | 0.00306 |
| GATGGTAA | 0.0264 |
| CATGGGAA | -0.0428 |
| ATGTACGG | 0.241 |
| CTTGTGGA | -0.249 |
| AGCAATAT | 0.148 |
| AGAGTCAA | -0.312 |
| GGTAATAA | 0.1 |
| CTAATTAC | 0.0227 |
| ACATGCTA | 0.0424 |
| CGAAGCCG | -0.0718 |
| AGGTAGCA | -0.186 |
| CGCGTTTA | -0.0607 |
| AAGGAGAC | -0.117 |
| AGTTATTA | 0.157 |
| CTATAACC | -0.0438 |
| CCATGCGG | -0.272 |
